# Measurements: PMC8770743
# T1: Nuclear factor erythroid-2-related factor-2 (human (endogenous in PDLSCs)) (UniProt Q16236)
# T1 sequence: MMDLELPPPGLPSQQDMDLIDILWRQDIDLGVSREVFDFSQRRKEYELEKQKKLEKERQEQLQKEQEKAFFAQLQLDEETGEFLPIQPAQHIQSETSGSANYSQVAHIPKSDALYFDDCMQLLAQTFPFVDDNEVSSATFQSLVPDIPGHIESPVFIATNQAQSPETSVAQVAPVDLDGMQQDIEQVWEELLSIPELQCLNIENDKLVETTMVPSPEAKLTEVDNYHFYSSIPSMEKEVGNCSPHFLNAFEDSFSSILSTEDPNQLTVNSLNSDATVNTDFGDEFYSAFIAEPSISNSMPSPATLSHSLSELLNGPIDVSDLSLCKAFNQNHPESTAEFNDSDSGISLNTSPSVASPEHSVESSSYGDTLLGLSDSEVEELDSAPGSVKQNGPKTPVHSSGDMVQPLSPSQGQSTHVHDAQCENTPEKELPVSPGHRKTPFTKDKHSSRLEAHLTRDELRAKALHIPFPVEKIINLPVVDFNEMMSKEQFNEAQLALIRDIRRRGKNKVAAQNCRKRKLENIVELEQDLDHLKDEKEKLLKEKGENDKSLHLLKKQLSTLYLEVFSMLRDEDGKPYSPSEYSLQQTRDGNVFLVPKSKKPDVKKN
# B1: Nuclear factor erythroid-2-related factor-2 (protein, UniProt Q16236 1-605)
# chain: T1 sequence
# Assays:
# [1] = molecular target: T1, Nuclear factor erythroid-2-related factor-2 (human (endogenous in PDLSCs)); assay: co-IP; endogenous proteins in NP-40 lysate of human PDLSCs (cyclic mechanical stress; with or without t-BHQ); primary antibody (2.5 ug) and Protein A/G Plus Agarose at 4°C overnight, washed three times with NP-40 lysis buffer, western blotting
# [2] = molecular target: protein kinase B (human (endogenous in PDLSCs)); assay: as above
Molecule,binding [1],binding [2]
protein kinase B (human (endogenous in PDLSCs)) (enzyme),binds,–
B1,–,binds

# No constants are given. Whether binding was seen depends on the method and setting. Binding seen in cells or lysates may run through a third protein. Binding calls can cover weak binding; strength is not graded here.
